Measured values as given in the M2OR odorant receptor database.
Only a part is listed here, and it is no random draw. Calls are pooled over several reports, among them a noisy single-well screen. The list shows a part of the results.

Sequences of proteins named here, by UniProt entry; tags and fusion partners are left off. A change or cut given only in a name is not applied to a line headed by its entry.
UniProt Q9H340: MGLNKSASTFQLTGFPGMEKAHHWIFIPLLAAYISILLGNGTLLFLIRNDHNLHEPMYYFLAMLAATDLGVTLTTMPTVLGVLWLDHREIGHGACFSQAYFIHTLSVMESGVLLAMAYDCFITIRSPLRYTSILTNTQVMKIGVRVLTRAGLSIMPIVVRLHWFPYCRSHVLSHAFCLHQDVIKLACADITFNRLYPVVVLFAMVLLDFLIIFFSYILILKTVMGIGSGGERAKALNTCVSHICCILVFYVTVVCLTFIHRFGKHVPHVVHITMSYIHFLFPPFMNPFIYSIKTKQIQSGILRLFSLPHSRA

Columns and labels:
Conditions in all cases: stereoisomer not certain
[1] = target: T1, OR51D1 (Homo sapiens) (UniProt Q8NGF3)
T1 sequence (whole entry): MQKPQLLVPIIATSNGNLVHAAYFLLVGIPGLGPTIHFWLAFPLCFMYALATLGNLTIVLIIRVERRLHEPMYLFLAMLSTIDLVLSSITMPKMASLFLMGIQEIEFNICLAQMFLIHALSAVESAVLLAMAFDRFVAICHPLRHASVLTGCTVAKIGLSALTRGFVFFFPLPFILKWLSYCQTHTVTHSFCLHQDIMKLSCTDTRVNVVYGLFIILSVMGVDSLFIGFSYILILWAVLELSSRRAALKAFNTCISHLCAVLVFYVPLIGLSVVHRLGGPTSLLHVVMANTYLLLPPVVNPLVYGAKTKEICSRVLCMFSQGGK
Summary of the method: (§1)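 Each entry records the cell line, G-protein, co-transfected protein and tags used. Methods varied with the source, often transient luciferase assays in mammalian cell lines. A receptor–molecule pair is called responsive (active) if the original authors judged its signal statistically different from baseline and non-responsive (inactive) otherwise.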

[2] = target: T2, OR51E1 (Homo sapiens) (UniProt Q8TCB6)
T2 sequence (whole entry): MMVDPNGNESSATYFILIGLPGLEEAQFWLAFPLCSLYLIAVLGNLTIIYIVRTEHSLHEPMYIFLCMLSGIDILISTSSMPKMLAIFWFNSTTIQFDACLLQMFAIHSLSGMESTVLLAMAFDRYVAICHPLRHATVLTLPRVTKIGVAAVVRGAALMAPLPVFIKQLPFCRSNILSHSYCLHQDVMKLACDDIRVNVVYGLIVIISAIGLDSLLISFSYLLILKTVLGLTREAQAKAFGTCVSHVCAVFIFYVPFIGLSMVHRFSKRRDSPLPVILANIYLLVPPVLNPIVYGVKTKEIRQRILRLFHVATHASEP
Summary of the method: as §1

[3] = target: T3, OR51E1 (Homo sapiens) (UniProt Q8TCB6); remark: listed apart in the source
T3 sequence (whole entry): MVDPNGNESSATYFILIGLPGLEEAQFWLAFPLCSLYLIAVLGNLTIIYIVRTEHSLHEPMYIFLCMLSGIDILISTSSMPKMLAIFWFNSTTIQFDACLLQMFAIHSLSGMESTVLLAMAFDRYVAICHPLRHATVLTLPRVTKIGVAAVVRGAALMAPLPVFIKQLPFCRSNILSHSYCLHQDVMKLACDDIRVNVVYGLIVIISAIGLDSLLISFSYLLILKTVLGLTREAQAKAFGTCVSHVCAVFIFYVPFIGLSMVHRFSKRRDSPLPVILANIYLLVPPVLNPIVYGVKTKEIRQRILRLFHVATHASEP
Summary of the method: as §1

[4] = target: T4, OR51E2 (Homo sapiens) (UniProt Q9H255)
T4 sequence (whole entry): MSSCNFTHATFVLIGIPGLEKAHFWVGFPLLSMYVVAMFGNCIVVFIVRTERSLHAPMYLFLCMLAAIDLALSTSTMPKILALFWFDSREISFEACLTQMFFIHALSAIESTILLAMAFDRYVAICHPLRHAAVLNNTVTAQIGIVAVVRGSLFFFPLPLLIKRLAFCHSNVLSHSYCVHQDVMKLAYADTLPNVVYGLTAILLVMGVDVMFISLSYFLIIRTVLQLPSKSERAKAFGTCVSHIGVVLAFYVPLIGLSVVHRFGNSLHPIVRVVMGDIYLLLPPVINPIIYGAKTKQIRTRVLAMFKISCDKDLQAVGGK
Summary of the method: as §1

[5] = target: T5, OR51G1 (Homo sapiens) (UniProt Q8NGK1)
T5 sequence (whole entry): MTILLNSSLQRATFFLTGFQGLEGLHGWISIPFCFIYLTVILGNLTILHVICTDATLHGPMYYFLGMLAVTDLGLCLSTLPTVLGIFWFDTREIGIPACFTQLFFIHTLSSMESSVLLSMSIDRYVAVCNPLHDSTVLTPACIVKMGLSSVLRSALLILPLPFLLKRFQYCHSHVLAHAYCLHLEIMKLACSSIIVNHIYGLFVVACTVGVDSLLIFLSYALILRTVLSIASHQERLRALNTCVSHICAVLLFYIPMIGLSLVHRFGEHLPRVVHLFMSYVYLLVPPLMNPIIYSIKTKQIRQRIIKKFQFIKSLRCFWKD
Summary of the method: as §1

[6] = target: T6, OR51H1 (Homo sapiens) (UniProt Q8NH63)
T6 sequence (whole entry): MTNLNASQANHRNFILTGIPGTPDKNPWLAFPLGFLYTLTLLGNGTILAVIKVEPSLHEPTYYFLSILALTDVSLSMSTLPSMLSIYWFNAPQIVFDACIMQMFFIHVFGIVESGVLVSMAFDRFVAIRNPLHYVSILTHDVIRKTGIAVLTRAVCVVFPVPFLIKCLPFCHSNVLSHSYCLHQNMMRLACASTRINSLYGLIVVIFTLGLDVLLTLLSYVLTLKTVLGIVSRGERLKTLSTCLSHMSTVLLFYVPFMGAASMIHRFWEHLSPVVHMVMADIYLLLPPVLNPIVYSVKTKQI
Summary of the method: as §1

[7] = target: OR51B6 (Homo sapiens) (UniProt Q9H340)
Summary of the method: as §1

[8] = target: T7, OR51F1 (Homo sapiens) (UniProt A6NGY5)
T7 sequence (whole entry): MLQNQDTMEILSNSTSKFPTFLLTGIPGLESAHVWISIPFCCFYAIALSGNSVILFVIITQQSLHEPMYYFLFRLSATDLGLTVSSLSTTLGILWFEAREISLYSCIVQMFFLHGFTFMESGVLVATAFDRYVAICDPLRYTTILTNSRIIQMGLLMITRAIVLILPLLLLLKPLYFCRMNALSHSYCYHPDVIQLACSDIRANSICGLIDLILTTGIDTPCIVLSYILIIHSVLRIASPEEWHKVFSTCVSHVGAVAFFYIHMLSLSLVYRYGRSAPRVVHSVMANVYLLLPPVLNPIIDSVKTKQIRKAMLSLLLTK
Summary of the method: as §1

[9] = target: T8, OR51F2 (Homo sapiens) (UniProt Q8NH61)
T8 sequence (whole entry): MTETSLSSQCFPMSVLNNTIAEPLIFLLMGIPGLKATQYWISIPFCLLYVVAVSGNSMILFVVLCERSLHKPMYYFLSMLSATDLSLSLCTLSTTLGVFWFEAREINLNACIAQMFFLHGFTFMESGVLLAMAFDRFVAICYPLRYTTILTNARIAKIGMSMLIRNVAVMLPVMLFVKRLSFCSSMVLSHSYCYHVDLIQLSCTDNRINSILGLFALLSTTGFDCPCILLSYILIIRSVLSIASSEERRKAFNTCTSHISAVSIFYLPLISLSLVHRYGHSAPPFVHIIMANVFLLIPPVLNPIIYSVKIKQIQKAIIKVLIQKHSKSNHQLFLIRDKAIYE
Summary of the method: as §1

[10] = target: T9, OR51G2 (Homo sapiens) (UniProt Q8NGK0)
T9 sequence (whole entry): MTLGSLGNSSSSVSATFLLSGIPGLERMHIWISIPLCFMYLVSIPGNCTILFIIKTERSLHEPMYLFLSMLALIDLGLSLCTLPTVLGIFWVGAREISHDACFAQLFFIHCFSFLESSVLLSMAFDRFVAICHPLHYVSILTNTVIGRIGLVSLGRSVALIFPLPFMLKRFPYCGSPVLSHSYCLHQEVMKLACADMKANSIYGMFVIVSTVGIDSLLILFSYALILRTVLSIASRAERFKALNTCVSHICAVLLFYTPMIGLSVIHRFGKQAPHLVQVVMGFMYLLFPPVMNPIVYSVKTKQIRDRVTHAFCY
Summary of the method: as §1

Structure (SMILES) | odorant receptor agonist call [1] | odorant receptor agonist call [2] | odorant receptor agonist call [3] | odorant receptor agonist call [4] | odorant receptor agonist call [5] | odorant receptor agonist call [6] | odorant receptor agonist call [7] | odorant receptor agonist call [8] | odorant receptor agonist call [9] | odorant receptor agonist call [10]
O=C1CCCCC1 | inactive | inactive | inactive | inactive | inactive | inactive | – | – | – | –
CCCCCC(=O)O | inactive | inactive | inactive | inactive | inactive | inactive | – | – | – | –
CCCCCCCCCC=O | inactive | active | inactive | inactive | inactive | inactive | – | – | – | –
CCCCCOC(C)=O | inactive | inactive | – | inactive | inactive | inactive | – | – | – | –
COC(=O)c1ccccc1 | inactive | active | – | inactive | inactive | inactive | – | – | – | –
CC1COCc2cc3c(cc21)C(C)(C)C(C)C3(C)C (stereo not given) | inactive | inactive | – | inactive | inactive | inactive | – | – | – | –
CCCCCCCC=CC=O | inactive | inactive | – | inactive | inactive | inactive | – | – | – | –
CC1=CCC(C(C)(C)O)CC1 (stereo not given) | inactive | inactive | – | inactive | inactive | inactive | – | – | – | –
CCCCCCCCCCC=O | inactive | inactive | – | inactive | inactive | inactive | – | – | – | –
CC(=O)c1ccccc1 | inactive | active | inactive | inactive | inactive | inactive | – | – | – | –
CC(C)CCC(=O)O | inactive | active | active | inactive | inactive | inactive | – | – | – | –
CCCC(=O)O | active | active | inactive | inactive | inactive | inactive | inactive | inactive | inactive | inactive

Entries of single compounds, quoted from the list. Order of values: odorant receptor agonist call [1] | odorant receptor agonist call [2] | odorant receptor agonist call [3] | odorant receptor agonist call [4] | odorant receptor agonist call [5] | odorant receptor agonist call [6] | odorant receptor agonist call [7] | odorant receptor agonist call [8] | odorant receptor agonist call [9] | odorant receptor agonist call [10]
CCCCCCCCCC=O reads inactive | active | inactive | inactive | inactive | inactive | – | – | – | –
CC(C)CCC(=O)O reads inactive | active | active | inactive | inactive | inactive | – | – | – | –
